This is an account of results in article PMC12747536.

Sequences of proteins named here, by UniProt entry; tags and fusion partners are left off.
UniProt Q8WXF0: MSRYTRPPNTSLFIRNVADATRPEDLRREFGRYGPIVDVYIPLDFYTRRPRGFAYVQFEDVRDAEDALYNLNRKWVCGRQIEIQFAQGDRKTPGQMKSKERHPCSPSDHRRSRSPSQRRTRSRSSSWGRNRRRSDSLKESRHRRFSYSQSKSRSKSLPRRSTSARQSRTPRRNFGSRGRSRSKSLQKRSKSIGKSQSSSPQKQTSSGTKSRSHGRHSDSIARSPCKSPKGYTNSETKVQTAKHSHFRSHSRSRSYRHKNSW
UniProt O15042: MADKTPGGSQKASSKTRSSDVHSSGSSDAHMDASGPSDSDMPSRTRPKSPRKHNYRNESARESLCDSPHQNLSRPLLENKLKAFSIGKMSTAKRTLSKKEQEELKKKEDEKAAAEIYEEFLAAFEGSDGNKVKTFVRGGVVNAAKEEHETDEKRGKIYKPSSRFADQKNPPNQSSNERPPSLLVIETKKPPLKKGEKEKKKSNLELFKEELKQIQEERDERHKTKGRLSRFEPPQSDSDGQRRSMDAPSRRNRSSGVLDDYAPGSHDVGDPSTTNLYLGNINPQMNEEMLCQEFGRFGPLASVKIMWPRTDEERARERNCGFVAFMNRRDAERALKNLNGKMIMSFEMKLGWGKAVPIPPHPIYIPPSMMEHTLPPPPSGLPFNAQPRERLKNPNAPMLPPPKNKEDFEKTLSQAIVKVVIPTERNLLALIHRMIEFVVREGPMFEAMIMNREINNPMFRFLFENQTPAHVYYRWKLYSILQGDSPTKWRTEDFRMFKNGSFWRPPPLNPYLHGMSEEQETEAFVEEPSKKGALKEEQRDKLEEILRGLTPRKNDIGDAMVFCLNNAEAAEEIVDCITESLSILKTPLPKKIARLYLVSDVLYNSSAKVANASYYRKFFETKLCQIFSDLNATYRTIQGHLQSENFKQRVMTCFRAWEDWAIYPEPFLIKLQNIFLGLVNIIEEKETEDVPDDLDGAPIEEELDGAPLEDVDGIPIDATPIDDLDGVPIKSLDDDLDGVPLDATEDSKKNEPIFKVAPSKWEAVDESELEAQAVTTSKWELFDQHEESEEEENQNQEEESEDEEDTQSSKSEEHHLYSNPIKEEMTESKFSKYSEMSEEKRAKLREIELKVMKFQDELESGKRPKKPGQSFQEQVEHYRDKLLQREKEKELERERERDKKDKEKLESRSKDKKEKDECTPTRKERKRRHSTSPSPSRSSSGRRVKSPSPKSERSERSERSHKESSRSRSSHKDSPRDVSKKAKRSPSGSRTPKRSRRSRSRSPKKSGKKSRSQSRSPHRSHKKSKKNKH

No constants are given. Whether binding was seen depends on the method and setting. In cells and extracts the contact can be indirect. Some entries that bind do so weakly or less than the wild type. Where a sequence is shown, tags or fusion partners need not be part of it.

For the experiment, the target named is T1, GFP-tagged C9ORF50 (pCMV-C9ORF50-GFP) (not stated (human or mouse cDNA cloned)) (UniProt Q5SZB4).
T1 sequence: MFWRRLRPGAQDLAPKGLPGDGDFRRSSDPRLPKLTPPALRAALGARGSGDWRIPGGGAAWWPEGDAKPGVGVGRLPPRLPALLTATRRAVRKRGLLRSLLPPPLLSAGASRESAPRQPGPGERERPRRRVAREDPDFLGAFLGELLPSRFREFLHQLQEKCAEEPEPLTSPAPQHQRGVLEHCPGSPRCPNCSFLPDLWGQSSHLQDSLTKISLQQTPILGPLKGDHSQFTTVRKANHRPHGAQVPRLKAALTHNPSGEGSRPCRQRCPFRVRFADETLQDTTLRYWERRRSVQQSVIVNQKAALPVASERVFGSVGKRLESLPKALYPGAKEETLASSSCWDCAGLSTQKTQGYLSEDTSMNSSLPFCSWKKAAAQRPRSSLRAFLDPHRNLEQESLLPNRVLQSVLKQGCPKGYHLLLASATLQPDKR
The experiment is described as follows: co-IP; HEK293T cells transfected with pCMV-C9ORF50-GFP or pCMV-GFP; RIPA lysate (2 mg protein) immunoprecipitated with 10 ug rabbit anti-GFP antibody (Pierce Classic Magnetic IP/Co-IP kit); immunoblot with anti-U2SURP and anti-SRSF12. For orientation: A western blot detects proteins with antibodies after separation by electrophoresis.

For SRSF12 (from UniProt Q8WXF0 1-261), the binding entry was “binds”.

U2SURP (from UniProt O15042 1-1029): the binding result is given as “binds”.
